US20130315927A1 (Novartis, published 2013)
Positions count from the first letter of the chain named. No constants are given. Whether binding was seen depends on the method and setting. For some assays here: A result given as binding can be weak or reduced; the word gives no strength.

Sequences of proteins named here, by UniProt entry; tags and fusion partners are left off. A change or cut given only in a name is not applied to a line headed by its entry.
UniProt Q8NBP7: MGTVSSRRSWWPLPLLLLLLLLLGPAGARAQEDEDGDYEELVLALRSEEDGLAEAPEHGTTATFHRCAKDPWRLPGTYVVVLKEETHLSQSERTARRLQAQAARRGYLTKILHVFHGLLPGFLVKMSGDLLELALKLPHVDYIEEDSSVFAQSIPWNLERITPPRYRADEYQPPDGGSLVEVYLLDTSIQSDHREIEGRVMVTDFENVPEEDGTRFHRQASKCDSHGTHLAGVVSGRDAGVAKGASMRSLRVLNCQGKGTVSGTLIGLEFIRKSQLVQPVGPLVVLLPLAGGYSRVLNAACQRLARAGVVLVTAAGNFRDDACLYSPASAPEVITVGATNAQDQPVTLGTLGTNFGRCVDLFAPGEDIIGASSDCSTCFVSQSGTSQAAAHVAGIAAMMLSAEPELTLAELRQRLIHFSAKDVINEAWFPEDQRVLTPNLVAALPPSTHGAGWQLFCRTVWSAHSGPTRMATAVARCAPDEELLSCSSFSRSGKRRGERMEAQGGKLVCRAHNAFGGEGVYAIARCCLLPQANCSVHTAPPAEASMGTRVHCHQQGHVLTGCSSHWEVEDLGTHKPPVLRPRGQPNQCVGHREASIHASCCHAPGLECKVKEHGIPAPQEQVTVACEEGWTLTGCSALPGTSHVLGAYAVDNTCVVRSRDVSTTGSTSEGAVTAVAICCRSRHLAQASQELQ

B1: Humaneered antibody MAB2 (antibody, human IgG1, V domains shown)
VH: QITLKESGPVLVKPTETLTLTCTVSGFSLSTSGVGVGWIRQPPGKALEWLADIWWDDNKYYNPSLKSRLTISKDTSKNQVVLTMTNMDPVDTATYYCARITTEGGFAYWGQGTLVTVSS
VL: DIQMTQSPSSLSASVGDRVTITCRAGQRISHNLHWYQQKPDESPRLLINFASRLISGVPSRFSGSGSGTDFTLTISSLQPEDFATYYCQQSNYWPLTFGQGTKLEIK
B2: Humaneered antibody MAB3 (antibody, human IgG1, V domains shown)
VH: B1 VH with I2V, V10T, E16Q, P42S
VL: B1 VL
B3: mouse monoclonal antibody MAB1 (antibody, V domains shown)
VH: QVTLKESGPGILQPSQTLSLTCSFSGFSLSTSGMGVGWIRQPSGEGLEWLADIWWDDNKYYNPSLKSRLTVSKDTSSNQVFLKITSVDTADTATYYCALITTEGGFAYWGQGTLVTVSA
VL: DIVLTQSPATLSVTPGDSVSLSCRASQSINNNLHWYQQKSHESPRLLIKFASRSISGIPSKFSGSGSGTDFTLSINSVETEDFGMYFCQQSNYWPLTFGAGTNLELI
notes: also called parent mouse monoclonal antibody; murine anti-human Pcsk9 IgG1-kappa monoclonal antibody
B4: reference Fab SR101-B1 (Fab, V domains shown)
VH: B3 VH
VL: B3 VL
B5: candidate Fab with the heavy chain of Clone 37 and the light chain of Clone 45 (Fab form of MAB3) (Fab, V domains shown)
VH: B1 VH with I2V, V10T, E16Q, P42S
VL: B1 VL

Assays:
[1] = biological target: recombinant human PCSK9 (aa 31-692) with C-terminal His6 tag (human) (UniProt Q8NBP7); assay: specificity ELISA
[2] = biological target: recombinant human PCSK9 (aa 31-692) with C-terminal His6 tag (human) (UniProt Q8NBP7); assay: solution equilibrium titration (SET)
[3] = biological target: recombinant human PCSK9 (aa 31-692) with C-terminal His6 tag (human) (UniProt Q8NBP7); assay: ELISA as the text says (the legend of FIGS. 5A-C describes a fitted Kd)
[4] = biological target: Klotho-His; assay: specificity ELISA, antigen coated at 88 ng per well, absorbance 650 nm
[5] = biological target: recombinant human PCSK9 (aa 31-692) with C-terminal His6 tag (human) (UniProt Q8NBP7); assay: TR-FRET blocking assay: antibody titrated on 8 nM hPcsk9-AF, blocked ligand 1 nM hLDL-R-Eu
[6] = biological target: recombinant human PCSK9 (aa 31-692) with C-terminal His6 tag (human) (UniProt Q8NBP7); assay: specificity ELISA, antigen coated at 88 ng per well, antibody at 2 µg/mL, absorbance 650 nm
[7] = biological target: recombinant human PCSK9 (aa 31-692) with C-terminal His6 tag (human) (UniProt Q8NBP7); assay: solution equilibrium titration (SET): soluble human PCSK9 titrated against 100 pM antibody, free antibody captured on a Pcsk9-coated MSD plate, electrochemiluminescence
[8] = biological target: recombinant human PCSK9 (aa 31-692) with C-terminal His6 tag (human) (UniProt Q8NBP7); assay: dilution ELISA with purified Fabs
[9] = biological target: biotinylated PCSK9-Avi-His6 (human) (UniProt Q8NBP7); assay: ForteBio Octet bio-layer interferometry

Binder	binding [1]	binding [2]	binding [3]	binding [4]	binding [5]	binding [6]	binding [7]	binding [8]	binding [9]
B1	binds	binds	binds	no binding (tested: 2 µg/mL (single concentration))	binds	binds	binds	–	–
B2	binds	binds	binds	no binding (tested: 2 µg/mL (single concentration))	binds	binds	binds	–	–
B3	–	–	–	no binding (tested: 2 µg/mL (single concentration))	–	–	–	–	–
B4	–	–	–	–	–	–	–	binds	–
B5	–	–	–	–	–	–	–	–	binds
